The record followed here is patent publication US20040014072, “Novel dna synthase” (published 2004).

Protein sequences, listed by entry. Tags and fused reporters are not part of them. Lines headed by an entry give the natural chain unless they say otherwise; changes in a name come on top.
UniProt Q9P9H1: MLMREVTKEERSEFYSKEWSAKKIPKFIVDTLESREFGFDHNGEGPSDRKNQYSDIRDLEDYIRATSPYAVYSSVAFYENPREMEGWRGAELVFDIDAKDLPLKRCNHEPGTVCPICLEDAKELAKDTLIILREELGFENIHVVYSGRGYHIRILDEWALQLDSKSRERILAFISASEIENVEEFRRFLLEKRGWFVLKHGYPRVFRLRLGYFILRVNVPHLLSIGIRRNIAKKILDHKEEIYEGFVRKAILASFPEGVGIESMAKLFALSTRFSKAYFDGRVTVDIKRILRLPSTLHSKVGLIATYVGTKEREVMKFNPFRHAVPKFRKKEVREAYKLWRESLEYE

Assay in all cases: EMSA
A general note: In EMSA bound probe runs differently from free probe, usually more slowly.

In series [1] the target is p41 (Pyrococcus furiosus) (UniProt Q9P9H1). The settings on record: no band shift for p41 alone, data not shown; purified recombinant protein; protein details: N-terminal His6; label: 5'-32P.
Series [2] deals with T1, p46 (Pyrococcus furiosus) (UniProt Q8U4H7).
T1 sequence: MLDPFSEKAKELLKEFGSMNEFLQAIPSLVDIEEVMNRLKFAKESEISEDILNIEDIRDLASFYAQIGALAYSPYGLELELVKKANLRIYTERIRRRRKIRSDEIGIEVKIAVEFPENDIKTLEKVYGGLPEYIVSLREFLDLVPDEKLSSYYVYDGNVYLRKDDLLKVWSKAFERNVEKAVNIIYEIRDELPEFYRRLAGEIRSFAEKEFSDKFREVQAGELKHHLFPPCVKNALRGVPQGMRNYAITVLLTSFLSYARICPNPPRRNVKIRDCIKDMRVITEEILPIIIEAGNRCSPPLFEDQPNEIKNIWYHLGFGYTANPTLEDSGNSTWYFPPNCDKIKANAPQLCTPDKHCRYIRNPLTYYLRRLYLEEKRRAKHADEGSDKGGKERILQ
The settings on record: no band shift for p46 alone, data not shown; purified recombinant protein; label: 5'-32P.

In series [3] the test system is p41-p46 complex (DNA primase/polymerase) (Pyrococcus furiosus). To be noted: 50 mM Tris-Cl pH 8.0, 10 mM MgCl2, 20 mM KCl, 55 C; purified recombinant protein; protein details: N-terminal His6 on p41, p46 untagged; label: 5'-32P.

For part of these data: For at least one entry, the source does not settle the construct or the ends of the probe. For part of these data: Negatives hold for the conditions tested. For part of these data: Protein sequences can lack the tags named with them.

With “AGCTACCATGCCTGCACGAATTAAGCAATTCGTAATCATGGTCATAGCT [49-mer annealed to complementary 17-mer]”, the values for the binding result in series [1], in series [2] and in series [3] were “no binding”, “no binding” and “binds”, respectively.
